{"source": "paper PMC11110763", "about": "“Carltonine-derived compounds for targeted butyrylcholinesterase inhibition” (RSC Medicinal Chemistry, 2024)", "test": "Human liver microsomal (HLM) stability", "conditions": "microsomes, pH 7.4"}
{"compound": "CN1C(=O)CN=C(c2ccccc2)c2cc(Cl)ccc21", "note": "[Diazepam, reference compound]", "values": [{"measurement": "microsomal CLint at 0.75 h, 3 µM", "result": 4.6, "unit": "µL/min/mg"}]}
